Source: PubChem BioAssay AID2685 (National Center for Advancing Translational Sciences (NCATS), 2010)
About 2,100 (0.66%) of roughly 320,000 compounds were called active. The inconclusive results got no clear call from the source; some entries with a clear call stand among them for comparison. The call rests on the fitted dose curve; in most records, active means well fitted inhibition curve with a large enough effect in the signal ratio, with a control signal flat (not every such curve was filed as active); inconclusive means small, poorly fitted or top-dose-only effect, or effect the other way, or a change in a side signal; inactive means flat fitted curve, though single readings scatter; the % refers to the signal ratio. Where the call is inconclusive, the potency comes from a doubtful curve fit.
On the % scale 0 is the no-effect control and ±100 the full control effect; potency means the concentration at half of the fitted maximal effect.

Assay: qHTS Assay for Lipid Storage Modulators in Drosophila S3 Cells
Conditions: BODIPY lipid droplet fluorescence, 18-24 h, cells fed with added oleic acid; lipid storage change, negative = inhibition: at 46.1 µM (top of the series) unless noted
Outline: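 Drosophila S3 cells loaded with oleic acid (400 uM, as added) and compounds at several concentrations; lipid droplets imaged by 488-nm laser-scanning cytometry, 500–530 nm intensity and object ratio to cell channel. Percent activity normalized to 20 uM Triacsin C.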
In the case of `O=C(CN1C(=O)C2C3C=CC(C3)C2C1=O)OCC(=O)c1ccc(Br)cc1` (stereo unspecified), the lipid storage change, negative = inhibition was inconclusive: -2.97%.
In the case of `COc1ccc(C2C(C(=O)N3CCOCC3)=C(C)NC3=C2C(=O)CC(C)(C)C3)cc1O` (stereo unspecified), the lipid storage change, negative = inhibition was inconclusive: -54.3%.
With `CC(C)C(O)(CC#CCN1CCCC1)c1ccccc1` (stereo unspecified) the lipid storage change, negative = inhibition was inconclusive: -39.6%.
In the case of `O=C(NCCCn1ccnc1)c1cc(C2CC2)on1`, the lipid storage change, negative = inhibition was inconclusive: 15.3%.
With `O=C(c1cc2cc(Br)ccc2oc1=O)N1CCN(c2ccccn2)CC1` the lipid storage change, negative = inhibition was inconclusive: 37.3%.
With `Cc1nnc(SCC(=O)c2ccc(C(C)C)cc2)s1` the Potency was inconclusive: 32.6 µM [falling, single point].
In the case of `Cc1ccc(S(=O)(=O)N2CCc3ccccc3C2)cc1C`, the lipid storage change, negative = inhibition was inconclusive: -0.491%.
In the case of `O=C(c1cn(-c2ccccc2)nc1-c1cccnc1)N1CCN(S(=O)(=O)c2ccccc2F)CC1`, the lipid storage change, negative = inhibition was inconclusive: 22.7%.
With `c1cc(-c2nnc3sc(C4CCCCC4)nn23)ccn1` the lipid storage change, negative = inhibition was inconclusive: 25.8%.
In the case of `CCOC(=O)C1=CC[C@]2(C)c3c(c4ccccc4n3C)C(=O)C1N2C`, the Potency was inconclusive: 6.51 µM [falling, single point].
For `COc1ccc(-c2noc(CCC(=O)NCCCN3CCC(Cc4ccccc4)CC3)n2)cc1`, the Potency was inconclusive: 3.66 µM [cytotoxic, partial curve].
In the case of `COc1ccc(OC(=O)C(C)N2C(=O)c3ccccc3C2=O)cc1` (stereo unspecified), the Potency was inconclusive: 0.13 µM [activator, full curve, poor fit].
In the case of `Oc1ccc(CN2CCCCC2)nc1-c1ccccc1`, the lipid storage change, negative = inhibition was inconclusive: -0.499%.
With `CCCC(=O)NC(Nc1ccc(S(=O)(=O)Nc2cc(C)on2)cc1)(C(=O)OCC)C(F)(F)F` (stereo unspecified) the lipid storage change, negative = inhibition was inconclusive: 5.9%.
For `CN1CCN(CCNC(=O)c2cn(Cc3ccccc3F)nn2)CC1`, the lipid storage change, negative = inhibition was inconclusive: 37.6%.
For `CCCCn1c(N)c(N(CC(C)C)C(=O)c2ccc(-c3ccc([N+](=O)[O-])cc3)o2)c(=O)[nH]c1=O`, the lipid storage change, negative = inhibition was inconclusive: 10.9%.
In the case of `O=c1cc(N2CCc3ccccc3C2)[nH]c(=O)n1-c1ccc(Br)cc1`, the “outcome” value was “inactive [at 46.1 µM]”.
In the case of `COc1cc2ccccc2cc1C(=O)NCC(c1cccs1)N(C)C` (stereo unspecified), the Potency was inconclusive: 6.51 µM [activator, single point].
For `COc1ccc(CCC(=O)OCC(=O)N2CCN(S(=O)(=O)c3ccc(C)cc3C)CC2)cc1`, the Potency was inconclusive: 29.1 µM [activator, single point].
With `COc1cc(C(C(=O)NC(C)(C)C)N(C(=O)CNC(=O)c2cccs2)c2ccccc2)cc(OC)c1OC` (stereo unspecified) the lipid storage change, negative = inhibition was inconclusive: 9.51%.
For `CC(=O)Nc1cc(C(F)(F)F)ccc1N1CCOCC1`, the “lipid storage change, negative = inhibition” value was inactive: 1.01%.
In the case of `Cc1ccc(-c2nc3cccnc3s2)cc1NS(=O)(=O)c1cccs1`, the lipid storage change, negative = inhibition was inconclusive: 18.5%.
With `CC/C(=N\NC(=O)CSCc1ccccc1Cl)c1ccc2c(c1)OCCO2` the Potency was inconclusive: 18.4 µM [rising, single point].
In the case of `CC(=O)Nc1ccc(OCC(=O)c2cc(C)ccc2C)cc1`, the Potency was inconclusive: 2.31 µM [activator, partial curve].
With `CCOc1ccccc1NC(=O)CSc1nnc(-c2cnccn2)n1C` the lipid storage change, negative = inhibition was inconclusive: 32.4%.
For `CN(C)CCN(C(=O)c1ccc2ccccc2c1)c1nc2c(F)cc(F)cc2s1`, the lipid storage change, negative = inhibition was inconclusive: 26.7%.
With `COc1ccc(C(C)=O)cc1COC(=O)c1ccc2ccccc2n1` the lipid storage change, negative = inhibition was inconclusive: -0.277%.
In the case of `O=C(NC1CCCC1)c1cccc(NC(=O)c2ccco2)c1`, the Potency was inconclusive: 20.6 µM [cytotoxic, single point].
With `CCOC(=O)C1CCN(CC(O)COc2ccc(C(C)(C)CC)cc2)CC1` (stereo unspecified) the lipid storage change, negative = inhibition was inconclusive: -0.507%.
With `CCCc1c(C(=O)OCC)sc(N)c1C#N` the lipid storage change, negative = inhibition was inconclusive: 11.2%.
With `COc1ccccc1NS(=O)(=O)c1ccc(C)c(NC(=O)c2c(C)noc2C)c1` the lipid storage change, negative = inhibition was inconclusive: 8.93%.
For `COc1cccc(CNC(=O)CCC2CCCN(C(=O)c3csc(C(C)C)n3)C2)c1` (stereo unspecified), the Potency was inconclusive: 18.4 µM [falling, partial curve, poor fit].
For `c1ccc(CN2CCN(C(c3ccccc3)c3ccccc3)CC2)cc1`, the lipid storage change, negative = inhibition was inconclusive: 29.5%.
With `CCOCCCNC(=O)C(NC(=O)c1ccc(=O)[nH]c1)c1ccc(Cl)cc1` (stereo unspecified) the lipid storage change, negative = inhibition was inconclusive: 18.4%.
For `O=C(CSc1cccc2cccc(Cl)c12)OCC(=O)N1CCN(C(=O)c2ccco2)CC1`, the lipid storage change, negative = inhibition was inconclusive: -0.361%.
For `Cc1c(C(=O)N2CC(C)OC(C)C2)sc2nc(-c3ccc(F)cc3)cn12` (stereo unspecified), the lipid storage change, negative = inhibition was inconclusive: -52.3%.
In the case of `O=C(CSc1ccccc1)NCc1ccccc1`, the Potency was inconclusive: 29.1 µM [activator, partial curve, poor fit].
For `COc1ccc(OC)c(C(O)c2nc3ccccc3n2C(C)C)c1` (stereo unspecified), the Potency was inconclusive: 1.64 µM [falling, partial curve, poor fit].
In the case of `O=C1c2oc3ccccc3c(=O)c2C(c2cccnc2)N1CCCN1CCOCC1` (stereo unspecified), the lipid storage change, negative = inhibition was inconclusive: 19.3%.
For `COCCNC(=O)/C(C#N)=C1\N=C(NC(=O)c2cccs2)c2ccccc21`, the lipid storage change, negative = inhibition was inconclusive: 13.5%.
With `Cc1ccc(NC(=O)CCN2C(=O)NC3(CCCC3)C2=O)cc1` the lipid storage change, negative = inhibition was “inconclusive”.
For `O=C(N/N=C/c1ccc(O)c2ncccc12)c1cccc(Br)c1`, the lipid storage change, negative = inhibition was inconclusive: 2.74% [at 9.22 µM].
For `CN1CCN(c2ccc([N+](=O)[O-])cc2C(=O)Nc2ccccc2)CC1`, the lipid storage change, negative = inhibition was inconclusive: 20.5%.
With `Cn1c(SCC(=O)NCCc2ccccc2)nnc1-c1ccncc1` the lipid storage change, negative = inhibition was inconclusive: -76.9%.
With `CC(=O)Nc1ccc(S(=O)(=O)NCC(=O)OCC(=O)NC23CC4CC(CC(C4)C2)C3)cc1` the lipid storage change, negative = inhibition was inconclusive: -29.5%.
In the case of `CN(C)CCNc1oc(-c2cccc(Cl)c2)nc1C#N`, the “lipid storage change, negative = inhibition” value was inactive: 6.31%.
In the case of `COC(=O)C1(CO)NC(c2cccs2)C2C(=O)N(c3ccccc3)C(=O)C21` (stereo unspecified), the lipid storage change, negative = inhibition was inconclusive: -34.9%.
For `CC(C)c1nn2c(=O)cc(CSc3ccccc3NC(=O)c3ccccc3F)nc2s1`, the Potency was inconclusive: 2.06 µM [activator, partial curve].
With `CC(=O)NS(=O)(=O)c1ccc(NC(=O)c2ccc3c(c2)OCO3)cc1` the lipid storage change, negative = inhibition was inconclusive: 77.1%.
With `COc1ccc(NC(=O)NNC(=O)C(O)(c2ccccc2)c2ccccc2)cc1` the Potency was inconclusive: 29.1 µM [activator, single point].
In the case of `COC(=O)C(CCSC)NC(=O)Cn1ncc2c(=O)oc3ccc(C)cc3c21` (stereo unspecified), the lipid storage change, negative = inhibition was inconclusive: 30.5%.
In the case of `Cc1n[nH]c(=O)nc1NCc1ccco1`, the lipid storage change, negative = inhibition was inconclusive: 48.8%.
For `Cc1[nH]c2ccccc2c1C(=O)COC(=O)C1CCC(=O)N1` (stereo unspecified), the lipid storage change, negative = inhibition was inconclusive: -18%.
For `COc1ccc(/C=C/C(=O)OCCCN(C)C)cc1`, the lipid storage change, negative = inhibition was inconclusive: -96.2%.
With `N#CC(c1ccc(Cl)nn1)c1ccccc1Cl` (stereo unspecified) the Potency was inconclusive: 29.1 µM [activator, single point].
In the case of `Cc1ccc(OCCCC(=O)NNC(=O)c2ccncc2)cc1`, the lipid storage change, negative = inhibition was inconclusive: 13.3%.
With `COc1ccc(NC(=O)C(=O)NNC(=O)c2cccs2)c(OC)c1` the lipid storage change, negative = inhibition was inconclusive: 18%.
In the case of `COc1cccc(C2=N/C(=C\N(C)C)C(=O)O2)c1`, the lipid storage change, negative = inhibition was inconclusive: 39%.
For `NC(=O)c1ccc(C(=O)N/N=C/c2cccc(Oc3ccccc3)c2)cc1`, the lipid storage change, negative = inhibition was inconclusive: 71.6%.
With `Cc1ccc(Cl)cc1NS(=O)(=O)c1ccc2oc(=O)ccc2c1` the Potency was inconclusive: 0.13 µM [activator, partial curve, poor fit].
In the case of `Cc1nnc2ccc(-c3ccc(NS(C)(=O)=O)cc3)nn12`, the lipid storage change, negative = inhibition was inconclusive: -9.85% [at 9.22 µM].
With `CN(C)S(=O)(=O)c1cc(NC(=O)COC(=O)Cc2ccc(Cl)cc2Cl)ccc1Cl` the Potency was inconclusive: 7.31 µM [activator, full curve, poor fit].
With `CCn1c(=O)c2ccccc2n(CC(=O)NC2CCCCC2)c1=O` the Potency was inconclusive: 0.116 µM [activator, full curve, poor fit].
In the case of `CCc1ccccc1NC(=O)CSc1nc2ccccc2nc1N1CCOCC1`, the Potency was inconclusive: 23.1 µM [activator, single point].
For `C=CCOc1ccccc1CNCc1cccnc1`, the Potency was inconclusive: 25.9 µM [activator, single point].
For `COc1ccc(C2c3[nH]c4ccccc4c3C[C@H]3C(=O)N(c4ccccc4C(=O)N4CCC(C(=O)O)CC4)C(=O)N23)cc1` (stereo partly specified), the lipid storage change, negative = inhibition was inconclusive: 16.5%.
In the case of `CN(Cc1ccco1)C(=O)c1ccc(S(=O)(=O)N2CCCCCC2)cc1`, the lipid storage change, negative = inhibition was inconclusive: -4.23%.
For `Oc1ccc(Br)cc1/C=N/N1CCN(Cc2ccccc2)CC1`, the lipid storage change, negative = inhibition was inconclusive: 54.3%.
For `O=C(CO/N=C/c1c(Cl)cccc1Cl)NNC(=O)c1cccc(Cl)c1`, the Potency was inconclusive: 0.92 µM [activator, full curve, poor fit].
For `COC(=O)Cn1c(C)nc2ccccc21`, the lipid storage change, negative = inhibition was inconclusive: -3.72%.
With `Cc1ccc(NS(=O)(=O)c2cccc(C(=O)NCCCN3CCCC3=O)c2)cc1` the Potency was inconclusive: 2.91 µM [activator, partial curve].
In the case of `CN(CC(=O)Nc1ccccc1C(F)(F)F)Cc1c(O)ccc2ccccc12`, the Potency was inconclusive: 29.1 µM [falling, single point].
For `CCN(C(=O)COC(=O)CNS(=O)(=O)c1ccc2ccccc2c1)C1CCCCC1`, the lipid storage change, negative = inhibition was inconclusive: 7.81%.
For `O=C(c1ccccn1)N1CCN(S(=O)(=O)c2ccc(F)cc2)CC1`, the lipid storage change, negative = inhibition was inconclusive: 74%.
With `O=C(CN1CCCCCC1)NC(c1ccccc1)c1ccccc1` the Potency was inconclusive: 7.31 µM [falling, partial curve, poor fit].
In the case of `CC1(OC(=O)C2CCCC2)C(=O)C=C2C=C(c3ccsc3)N(c3ccccc3)C=C2C1=O` (stereo unspecified), the lipid storage change, negative = inhibition was inconclusive: -31.5%.
